# In US7550613B2, “Compounds” (Pronova Biopharma Norge AS, priority 2005, dated 2009):
# Assay: Effect of DHA derivatives in adipose prone mice during 4 months of dietary interventions (Example 5a)
# Type: in vivo, male C57BL/6 mice
# Method: All experiments were performed on male C57BL/6 mice, either a substrain C57BL/N (supplier: Charles River, Germany, n=160, experiments A-C, see below), or a substrain C57BL/6J (supplier: the Jackson laboratory, Bar Harbor, Me., USA, n=32, experiment D). Total numbers of animals used were higher (n=170 and 36, respectively), because of culling. In the latter case, animals were bred for several generations (<20) at the Institute of Physiology. At the beginning of the treatment, animals were 14-week-old and their body weight range was 23.6-27.1 g. One week before the study start, animals were sorted according to their body weight and assigned to subgroups (n=8) of similar mean body weight. This method allowed for culling of about 5-10% of animals showing the lowest and highest body weight, respectively. The animals eliminated from the study at this stage were sacrificed by cervical dislocation. Complete health check of mice was performed by the supplier Charles River and at the start of study serological tests were performed by ANLAB (Prague, Czech Republic). In addition, regular health checks were performed in the animal house in 3-mo-intervals using sentinel mice and serological examinations (ANLAB). In all the tests, the animals were free of specific pathogens.
# • (i) Chow diet (ssniff R/M-H from SSNIFF Spezialdieten Gmbh, Soest, Germany; see also http://ssniff.de) with protein, fat and carbohydrate forming 33, 9, and 58 energy %, respectively • (ii) High-fat diet prepared in the laboratory (cHF diet) with protein, fat and carbohydrate forming 15, 59, and 26 energy %, respectively, and well characterized fatty acid composition (with most of the lipids coming from corn oil; see Ruzickova 2004) • (iii) cHF diets in which 0.15, 0.5, and 1.5% of fat (specifically the corn oil constituent) was replaced by various PRB-compounds, namely PRB1, PRB2, PRB5, PRB7, and PRB8, or by DHA. All these compounds were in the form of ethyl esters, provided by Pronova Biocare a.s. in sealed containers. […]
compound,measurement,setting,value
"CC/C=C\C/C=C\C/C=C\C/C=C\C/C=C\C/C=C\CC(SCC)C(=O)OCC (stereo not drawn) [PRB-7, α-tioethyl docosahexaenoic acid ethyl ester]",Food intake,0.15% concentration,2.59 ± 0.02 grams/mouse/day
same,Food intake,0.5% concentration,2.69 ± 0.03 grams/mouse/day
same,Food intake,1.5% concentration,2.68 ± 0.03 grams/mouse/day
